# Screening data, single-dose tests

By UniProt entry, the sequences of proteins in these tests, tags left out. Residues count along the entry.
UniProt Q8IDJ8, 1-583: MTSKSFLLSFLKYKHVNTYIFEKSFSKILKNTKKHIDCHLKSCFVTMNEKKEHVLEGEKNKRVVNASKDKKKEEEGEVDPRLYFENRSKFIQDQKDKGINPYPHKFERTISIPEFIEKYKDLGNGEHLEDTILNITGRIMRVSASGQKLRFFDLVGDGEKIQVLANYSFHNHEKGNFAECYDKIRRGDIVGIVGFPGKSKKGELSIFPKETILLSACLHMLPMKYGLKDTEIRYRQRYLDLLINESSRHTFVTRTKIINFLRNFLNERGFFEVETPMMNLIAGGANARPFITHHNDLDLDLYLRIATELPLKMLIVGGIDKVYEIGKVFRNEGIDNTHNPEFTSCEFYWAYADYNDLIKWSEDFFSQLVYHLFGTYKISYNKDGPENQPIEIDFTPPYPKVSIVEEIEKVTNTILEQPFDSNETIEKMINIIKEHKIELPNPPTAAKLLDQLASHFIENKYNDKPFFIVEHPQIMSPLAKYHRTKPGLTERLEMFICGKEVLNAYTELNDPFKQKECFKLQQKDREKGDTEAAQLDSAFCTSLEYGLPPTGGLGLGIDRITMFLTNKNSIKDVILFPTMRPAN

The values are deposited in ChEMBL (CHEMBL3988442, “University of Dundee, Small-Polar-MMV Screening Library” (2021)).

Values are the deposited “Percent Effect”, in %. How 0% and 100% were set is not recorded. Most values in the screen are low, and negative values occur. This is an unselected part of the compounds tested.

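Enzyme assay of the cytosolic lysyl-tRNA synthetase in 384-well plates, read by luminescence. Target: Lysine-tRNA ligase, Plasmodium falciparum 3D7 (UniProt Q8IDJ8). Tested at 30 µM. Higher reads as stronger inhibition, judged from the few compounds that gave an IC50. Size under these conditions: about 69,000 compounds, about 49 of them at 50% or above in at least one test.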

| # | SMILES | Percent Effect |
|---|---|---|
| 1 | `COc1ccnc(N2CCN(C(=O)c3csc(C(C)C)n3)CC2)n1` | 2.59 |
| 2 | `CCN(CC)C(=O)NC(C)c1ccc(Oc2cccnc2)c(F)c1` (stereo not drawn) | -4.845 |
| 3 | `CC(C)NC(=O)C1CN(C(=O)Nc2ccccc2)CC12CCOCC2` (stereo not drawn) | -1.947 |
| 4 | `c1coc(CN2CCC(c3ccc4c(c3)OCO4)CC2)c1` | 0.5122 |
| 5 | `COc1ccc(C(C)N2CCC(OC)CC2)cc1Cl` (stereo not drawn) | 5.206 |
| 6 | `O=C(C1CCOCC1)N1CC[C@@H](N2CCOCC2)[C@@H]1Cc1ccccc1` | 8.828 |
| 7 | `COc1ccccc1CC(=O)N1CCC(NCc2c[nH]nc2C)CC1` | 2.641 |
| 8 | `CCCc1noc(CN(C)Cc2ccc3c(c2)OCO3)n1` | -0.3291 |
| 9 | `CN(C)C(=O)NC1COC2(CCN(Cc3ccco3)CC2)C1` (stereo not drawn) | 0.3948 |
| 10 | `Cc1ccc(CNc2ccc(N3CCC(CO)CC3)cn2)o1` | 4.966 |
| 11 | `CCC(C)NC(=O)c1cc(S(N)(=O)=O)c(Br)s1` (stereo not drawn) | 6.167 |
| 12 | `Cc1ccc(CN2CC[C@H]3[C@H]2CCN3S(=O)(=O)C2CC2)cc1` | 5.749 |
| 13 | `O=C(NCc1cc2ccccc2s1)c1cc(CN2CCCC(O)C2)on1` (stereo not drawn) | -0.1215 |
| 14 | `CN1CCN(C)C2(CCN(C(=O)CC(F)(F)F)CC2)C1=O` | 1.856 |
| 15 | `CN(C)CCN(Cc1cccnc1)C(=O)c1ccn(-c2ccccc2)n1` | -1.12 |
| 16 | `CC(C)(C)c1nc(CN(Cc2cccs2)C2CCS(=O)(=O)C2)cs1` (stereo not drawn) | 7.919 |
| 17 | `Cc1ccc(NC(=O)c2cccc(N(C)C)c2)nc1` | 6.357 |
| 18 | `CNS(=O)(=O)Cc1cccc(CNC(=O)Nc2cn[nH]c2)c1` | 0.2504 |
| 19 | `CCc1nc(CCNC(=O)Nc2cc(C(N)=O)sc2C)cs1` | -0.1335 |
| 20 | `CC(=O)Nc1nc(C(=O)NCCOc2ccccc2)cs1` | 1.247 |
| 21 | `O=C(NCCO)C1(Cc2cc(-c3ccc(F)cc3F)no2)CCOCC1` | 5.098 |
| 22 | `Cc1cc(C)cc(OCCC(=O)N2CCCC(n3cncn3)C2)c1` (stereo not drawn) | 4.758 |
| 23 | `Cn1cc(C2CCCN2CCCn2c(=O)oc3ccccc32)cn1` (stereo not drawn) | -1.649 |
| 24 | `Cc1nc(C)n(Cc2cccc(NC(=O)NC(C)(CO)C3CC3)c2)n1` (stereo not drawn) | 3.727 |
| 25 | `COC(=O)c1cccc(CNC(=O)c2cc(C(C)C)n(C)n2)c1` | 0.7799 |
| 26 | `Cn1cc(C(=O)N2CCCC(CN3CCCC3=O)C2)cn1` (stereo not drawn) | 2.776 |
| 27 | `Cc1nnc([C@@]23CCO[C@@H]2CCN(S(=O)(=O)c2cccnc2)C3)o1` | 2.695 |
| 28 | `O=C(CCc1ccccc1)C1CCCN(C(=O)c2ncc(F)cc2F)C1` (stereo not drawn) | 2.863 |
| 29 | `COCC1CCCN(C(=O)c2cc(Cn3ccc4ccccc43)[nH]n2)C1` (stereo not drawn) | -2.867 |
| 30 | `CN(C)CC1CSCCCN1S(=O)(=O)Cc1cccc(F)c1` (stereo not drawn) | -1.256 |
| 31 | `CNc1cc2c(nn1)CCN(C(=O)c1coc(Br)c1)C2` | -1.842 |
| 32 | `O=C(c1cccc2[nH]ccc12)N1CCC2(CCOC2)C1` (stereo not drawn) | 3.401 |
| 33 | `CCCn1ccc(C(=O)N2CCOC(c3nc(-c4cccs4)no3)C2)n1` (stereo not drawn) | 4.734 |
| 34 | `Cc1nnc(NC(=O)CN2CCCC2c2c(C)nn(C)c2C)s1` (stereo not drawn) | -1.052 |
| 35 | `N#CCCn1cnc2c(Br)cccc2c1=O` | 0.984 |
| 36 | `Cn1cc(C(=O)NCc2cn3c(n2)CN(CC2CCCC2)CC3)cn1` | 1.735 |
| 37 | `Cc1cnc(N2C[C@@H]3[C@@H](C(=O)NCC(C)C)CCS(=O)(=O)[C@@H]3C2)nc1` | 4.073 |
| 38 | `O=C(C1CCCC1)N1C[C@@H]2CCN(c3cccnc3)C[C@@H]2C1` | -2.16 |
| 39 | `Cc1nc(N(C)C)nc(NCCc2c[nH]cn2)c1C` | -1.016 |
| 40 | `COc1ccc(OC2CCN(C(=O)c3ccc(C)[nH]c3=O)CC2)cc1` | 0.6632 |
| 41 | `Cc1nnc(NC(=O)CN2CCc3nn(C)c(=O)cc3C2)s1` | -1.826 |
| 42 | `Cn1c(CO)nnc1SCc1c(F)cccc1Br` | 0.4472 |
| 43 | `Cc1cnn(CCC(=O)N2CCCC(c3nc(C)no3)C2)c1` (stereo not drawn) | -2.312 |
| 44 | `Cc1cc2cc(CNC3CCN(CC4CCOC4)CC3)oc2cc1C` (stereo not drawn) | 2.157 |
| 45 | `CN(C)C(=O)CN1CCc2ncnc(N(C)C)c2CC1` | 3.889 |
| 46 | `CC[C@H](C)[C@H](N)C(=O)Nc1nc(-c2cnc(N(C)CCO)nc2)cs1` | 1.843 |
| 47 | `Cc1ncc(CNC(=O)Cc2ccsc2)c(C2CCCN2C)n1` (stereo not drawn) | 2.285 |
| 48 | `COc1c(C(=O)NC(C)CC(=O)c2cccs2)c(C)nn1C` (stereo not drawn) | -1.412 |
| 49 | `O=C(C1CC1)N1CCCC1c1nnc2n1CCCCC2` (stereo not drawn) | 6.367 |
| 50 | `CN(C)S(=O)(=O)N1C[C@H](Oc2cccnc2)[C@H]2OCCC[C@H]21` | -3.257 |
| 51 | `CCOCC(=O)N1C[C@@H](NC(C)=O)[C@H](c2ccc(OC)cc2)C1` | -0.2225 |
| 52 | `CCCc1cc(N2CCC(NC3CCOCC3)CC2)nc(C)n1` | -2.806 |
| 53 | `CC(NC(=O)NCc1ccc(Cl)cc1)c1ccccn1` (stereo not drawn) | 5.952 |
| 54 | `COc1c(C2CCCN2C(=O)c2sc(C)nc2C)c(C)nn1C` (stereo not drawn) | -2.567 |
| 55 | `CCOCC(O)CN1CCN(C(=O)CC(C)C)CC1` (stereo not drawn) | -1.638 |
| 56 | `Cn1nc2c(cc1=O)CN(Cc1nc(-c3ccoc3)no1)CC2` | 6.301 |
| 57 | `CCC(Nc1ncccn1)c1ccc(OC)cc1` (stereo not drawn) | 7.852 |
| 58 | `O=C(NC1CCN(c2nccs2)CC1)c1cccs1` | -2.252 |
| 59 | `COc1ccc(C(O)CNC(=O)Cn2ccc(=O)n(C)c2=O)cc1` (stereo not drawn) | -1.757 |
| 60 | `Cc1nn(CCN2CCSCC2)cc1CNCC1CC1` | 3.136 |
| 61 | `O=C1CCC(=O)N1c1nn(Cc2cccc(F)c2)cc1Cl` | 2.248 |
| 62 | `CCCn1[nH]cc/c1=N\C(=O)CN1CCC[C@H]1CO` | 0.02399 |
| 63 | `CN(C)CCN1CCC2(CCN(C(=O)c3ccncc3)CC2)C1=O` | 3.367 |
| 64 | `COc1cccc(CNC[C@@]2(COc3cccnc3)C[C@@H](O)[C@@H](O)C2)c1` | 4.691 |
| 65 | `CC(C)NC(=O)CNC(=O)c1csc(Cc2ccccc2F)n1` | 1.953 |
| 66 | `Cc1ccc(OCCC(=O)N2CCOCC2c2ncon2)cc1C` (stereo not drawn) | 0.1764 |
| 67 | `CN(C)c1ncccc1CNC(=O)CCNc1ncccn1` | 4.563 |
| 68 | `CS(=O)(=O)c1ccc(NC(=O)N2C[C@H](O)[C@@H](N3CCOCC3)C2)cc1` | 1.045 |
| 69 | `COc1ccc(CN2C[C@@H]3COC[C@@H](CC(=O)N4CCCC4)[C@@H]3C2)cc1` | 4.492 |
| 70 | `Cc1cc(NC2CCc3ncnn3C2)n2nc(C(F)(F)F)nc2n1` (stereo not drawn) | 1.521 |
| 71 | `Cn1cc(CN2CCc3onc(C(=O)Nc4cccnc4)c3C2)cn1` | 1.762 |
| 72 | `Cc1cc(N2CCCC(O)(CN(C)C(=O)CCN)C2)c2cnccc2n1` (stereo not drawn) | -1.979 |
| 73 | `Cc1c(C(=O)O)oc2ccc(I)cc12` | 4.142 |
| 74 | `O=C(NCCN1CCOCC1)N(CCCO)C1CCCc2ccccc21` (stereo not drawn) | 1.418 |
| 75 | `CCC(=O)N1CCC(Cc2nccnc2Nc2ccccn2)CC1` | -6.706 |
| 76 | `CCOc1ccc(OCC(O)CN2CCN(S(C)(=O)=O)CC2)cc1` (stereo not drawn) | 0.3387 |
| 77 | `CCCS(=O)(=O)N1CC[C@@H]2[C@@H]1CC(=O)N2Cc1csc(C)n1` | 2.421 |
| 78 | `O=C(CCc1nc(C2CC2)no1)c1ccccc1` | -0.7951 |
| 79 | `CN(Cc1ccco1)Cc1ccccc1CNC(=O)c1cnccn1` | 6.772 |
| 80 | `CCOCC(=O)NCc1cc(Br)ccc1OC(F)F` | 2.356 |

Once more, the final 10:

{"smiles": "Cn1cc(CN2CCc3onc(C(=O)Nc4cccnc4)c3C2)cn1", "Percent Effect": 1.762}
{"smiles": "Cc1cc(N2CCCC(O)(CN(C)C(=O)CCN)C2)c2cnccc2n1", "stereo": "stereo not drawn", "Percent Effect": -1.979}
{"smiles": "Cc1c(C(=O)O)oc2ccc(I)cc12", "Percent Effect": 4.142}
{"smiles": "O=C(NCCN1CCOCC1)N(CCCO)C1CCCc2ccccc21", "stereo": "stereo not drawn", "Percent Effect": 1.418}
{"smiles": "CCC(=O)N1CCC(Cc2nccnc2Nc2ccccn2)CC1", "Percent Effect": -6.706}
{"smiles": "CCOc1ccc(OCC(O)CN2CCN(S(C)(=O)=O)CC2)cc1", "stereo": "stereo not drawn", "Percent Effect": 0.3387}
{"smiles": "CCCS(=O)(=O)N1CC[C@@H]2[C@@H]1CC(=O)N2Cc1csc(C)n1", "Percent Effect": 2.421}
{"smiles": "O=C(CCc1nc(C2CC2)no1)c1ccccc1", "Percent Effect": -0.7951}
{"smiles": "CN(Cc1ccco1)Cc1ccccc1CNC(=O)c1cnccn1", "Percent Effect": 6.772}
{"smiles": "CCOCC(=O)NCc1cc(Br)ccc1OC(F)F", "Percent Effect": 2.356}